Consider two molecules from paper PMC7449961.

No constants are given. Whether binding was seen depends on the method and setting. In cells and extracts the contact can be indirect. Binding can be weak; no strength is given. Tags and fused reporters may be left off the sequences shown.

Assay [1] deals with Full-length zebrafish Udu, Flag-tagged (zebrafish). Briefly: co-IP; Flag-tagged Udu constructs and Myc-tagged candidates co-transfected in HEK293 or COS-7 cells; lysate (25 mM Tris–HCl pH 7.4, 150 mM NaCl, 1% NP-40, 1 mM EDTA, 5% glycerol) on anti-FLAG M2 magnetic beads overnight at 4 °C; blot with anti-MYC.
Assay [2] deals with zebrafish Udu with only the PAH/SANT domain, Flag-tagged (zebrafish). The description is as above.

B1: zebrafish Tho complex 1, Myc-tagged (protein, UniProt Q7SYB2 1-655)
chain: MSPPSHFDFIEARDKFTVATKNAVDTRNCKPLTTAFSHLPGNETEKKATLDQALRGVLEEQIVNQKVNVDDFLSLIYISIDGVTEGICSATTPFLLLGDVLDCLPLDQCDKIFSFVEENVSTWKSNTFYSAGKNYLLRMCNDLLRRLSKSQNTVFCGRIQLFLARLFPLSEKSGLNLQSQFNLDNITVFNKNEQDSTLGQQHTEVKEEGMDVEEGEMGDEDAPAPSSIPIDYNLYRKFWTLQDYFRNPVQCYDKFSWMTFIKYSDEALAVFKSFKLDDMQASKKKLEEMRTSSGDHVYFAKFLTSEKLMDLQLSDSNFRRHILLQYLILFQYLKGQVKFKSSSCVLNDDQSLWIEDTTKLVYQLLKEIPPDGDKFGSMVEHILNTEENWNSWKNEGCPSFVKERPAETKPIRPSRKRQAPEDFLGKGPDRKILMGNDELTRLWNLNPDNMEACKSENREFMPSLEDFFEEAIEQADPANMVEDEYKVVRNSNYGWRALRLLSRRSPHFFQPTNQQFKSLADYLENMVIKLAKELPKDIPSEEIKTGEEDDDENGDNLLKDSNDSPSIQSKAVTNSQMDEIAAKLGSQWKTLADHLEMSDKEIRVIESDSEDVDLQAKMLLVAWQDREGSQATMESLVTALNAAGFNNIADNLSET
For the molecule B1, the binding result in assay [1] and in assay [2] was “binds” in each case.

B2: zebrafish BRCA1-associated protein 1, Myc-tagged (protein, UniProt A1L2G3 1-755)
chain: MNKGWLELESDPGLFTLLVEDFGVKGVQVEEIYDLQSKCQSPVYGFIFLFKWIEERRSRRKVSTLVDETSVIDDDIVNDMFFAHQLIPNSCATHALLSVLLNCSGVELGMTLSRMKAFTKGFNPESKGYAIGNAPELAKAHNSHARPEPRHLPEKQNGISAVRTMEAFHFVSYVPIKDRLFELDGLKAYPIDHGPWGEDEEWTDKARRVIMERIGLATAGEPYHDIRFNLMAVVPDRRIKYESKLDILKRNRQIILEGLQQIREKKVIRMTQQESGQDRKQQDSSSSEDTPPVVKKEEVQETPIPSGAEQATPTEAQEGAASLPSPAGKVRSMAKPALPAGGAPPPAPLPAPSTNTIVQRLPAFLDNHNYAKSPMQEEEDLAAGVGRSRPPQPPYSDDEDDYDDEEEECSTAGVTNSRVRRKLGLRTRTMSRTAVGGVAAMEGQLALSVLAEKLKKEVQRKDALATTGSTPLNVRTEGRTGGISITSACQPSPTPSNESTDTASEIGSAFNSPLRSPARSQATTRPSSPVASHVGRVLFGEEEGLPRLDARHNRAVRDLGVLVSSTQLQLQEDGVIFALPPTEALEGLKKVGGVDKKKKEEASGPGGEEEVKEGPSVEMKAEDVKESVDVKPEKENLPTTDVENSTKPPGEKYTPKELLALLKYVEADIANYEVYLKEEVEKRKKYKIDDQRRTHNYDEFICTFISMLAQEGMLASLVEQNISVRRRQGVSIGRLHKQRKPDRRKRSRPYKAKRQ
In the case of B2, the binding entry in assay [1] and in assay [2] was “binds” in each case.
